# Data taken from PMC9016070.
# No constants are given. Whether binding was seen depends on the method and setting. Binding seen in cells or lysates may run through a third protein. Some results given as binding are weak or reduced against the parent protein; the word gives no strength. Sequences can lack the tags named with a protein.
# T1: FLAG-tagged GBP2 (guanylate-binding protein 2) (UniProt P32456)
# T1 sequence: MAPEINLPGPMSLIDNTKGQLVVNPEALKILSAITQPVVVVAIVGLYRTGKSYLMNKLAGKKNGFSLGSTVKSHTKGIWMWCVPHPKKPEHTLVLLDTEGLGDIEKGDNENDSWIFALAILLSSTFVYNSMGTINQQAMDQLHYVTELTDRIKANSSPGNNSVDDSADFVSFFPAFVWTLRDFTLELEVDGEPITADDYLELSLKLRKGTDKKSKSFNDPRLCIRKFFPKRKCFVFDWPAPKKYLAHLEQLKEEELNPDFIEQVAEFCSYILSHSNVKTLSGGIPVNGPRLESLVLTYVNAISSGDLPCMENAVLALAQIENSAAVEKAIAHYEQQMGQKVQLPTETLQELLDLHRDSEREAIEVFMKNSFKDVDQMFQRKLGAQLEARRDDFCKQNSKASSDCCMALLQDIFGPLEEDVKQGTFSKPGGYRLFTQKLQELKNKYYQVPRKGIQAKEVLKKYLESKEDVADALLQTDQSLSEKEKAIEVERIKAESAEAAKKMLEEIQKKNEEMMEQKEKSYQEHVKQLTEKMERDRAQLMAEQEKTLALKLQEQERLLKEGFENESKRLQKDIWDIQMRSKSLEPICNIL
# B1: kinesin family member 22 (KIF22) (protein, UniProt Q14807 1-665)
# chain: MAAGGSTQQRRREMAAASAAAISGAGRCRLSKIGATRRPPPARVRVAVRLRPFVDGTAGASDPPCVRGMDSCSLEIANWRNHQETLKYQFDAFYGERSTQQDIYAGSVQPILRHLLEGQNASVLAYGPTGAGKTHTMLGSPEQPGVIPRALMDLLQLTREEGAEGRPWALSVTMSYLEIYQEKVLDLLDPASGDLVIREDCRGNILIPGLSQKPISSFADFERHFLPASRNRTVGATRLNQRSSRSHAVLLVKVDQRERLAPFRQREGKLYLIDLAGSEDNRRTGNKGLRLKESGAINTSLFVLGKVVDALNQGLPRVPYRDSKLTRLLQDSLGGSAHSILIANIAPERRFYLDTVSALNFAARSKEVINRPFTNESLQPHALGPVKLSQKELLGPPEAKRARGPEEEEIGSPEPMAAPASASQKLSPLQKLSSMDPAMLERLLSLDRLLASQGSQGAPLLSTPKRERMVLMKTVEEKDLEIERLKTKQKELEAKMLAQKAEEKENHCPTMLRPLSHRTVTGAKPLKKAVVMPLQLIQEQAASPNAEIHILKNKGRKRKLESLDALEPEEKAEDCWELQISPELLAHGRQKILDLLNEGSARDLRSLQRIGPKKAQLIVGWRELHGPFSQVEDLERVEGITGKQMESFLKANILGLAAGQRCGAS
# Molecular target: T1, FLAG-tagged GBP2 (guanylate-binding protein 2)
# Experiment: co-IP; anti-FLAG immunoprecipitation from 1 mg whole-cell extract of cells overexpressing FLAG-tagged GBP2 or KIF22 (293T by the methods, 'glioma cells' by the results), low-salt lysis buffer, 2 h at 4 °C, three washes; SDS-PAGE and blot
binder,measurement,value
B1,binding,binds
